# In PubChem BioAssay AID2685 (National Center for Advancing Translational Sciences (NCATS), 2010):
# Some of the results follow. Shown are side measurements of this screen, not its main read-out; they come without a call. Compounds called inactive in the main read-out are mostly missing here. Words in brackets tell the shape of the fitted curve; partial curves, single points and poor fits give uncertain potencies.
# Experiment: qHTS Assay for Lipid Storage Modulators in Drosophila S3 Cells;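 as to cell number change: cells counted by Cell Tracker Red CMTPX staining in the red channel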
# Details: BODIPY lipid droplet fluorescence, 18-24 h; for cell number change: measured here: cell count max response, cells fed with added oleic acid
# How it was run: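 Drosophila S3 cells got compounds at several concentrations plus oleic acid (400 uM solution). Laser-scanning cytometry with 488 nm excitation read lipid droplets at 500-530 nm and cells at 575-640 nm. Percent activity was relative to 20 uM Triacsin C.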
# [1] = measured here: cell number channel AC50, cells fed with added oleic acid
# [2] = measured here: lipid fluorescence (Fed channel) AC50, cells fed with added oleic acid
smiles,measurement,setting,value
CCn1c(SCC(=O)c2cc(OC)ccc2OC)nnc1C1CC1,cell number change,,34.7%
same,AC50,[1],"6.51 µM [rising, partial curve, poor fit]"
same,AC50,[2],"8.2 µM [rising, partial curve]"
COc1ccccc1N1CCN(C(=O)CNC(=O)c2ccc(Cl)cc2Cl)CC1,cell number change,,18.7%
CCOC(=O)CSc1nc2c(c(=O)n(C)c(=O)n2C)n1CCCc1ccccc1,AC50,[1],"6.51 µM [rising, partial curve]"
same,AC50,[2],"4.11 µM [rising, partial curve]"
Cc1ccc(-c2csc(NC(=O)Cc3cccs3)n2)cc1C,cell number change,,22.6%
Nc1nc(Nc2cccc(F)c2)nc(NCc2ccco2)c1[N+](=O)[O-],cell number change,,-5.3%
same,AC50,[2],"6.51 µM [rising, single point]"
COCCN(C)Cc1cn(-c2ccc(F)cc2F)nc1-c1ccccc1C,cell number change,,-22.1%
CC1(C)C(=O)Nc2ccccc2N1C(=O)Cn1ncc(Cl)c(Cl)c1=O,cell number change,,-19.9%
same,AC50,[2],"29.1 µM [falling, single point]"
Cn1c(=O)cc(OCC(=O)N2CCCc3ccccc32)c2ccccc21,cell number change,,2.73%
same,AC50,[2],"0.82 µM [rising, full curve]"
CC(=O)c1ccc(N=C2SCCCN2C(=O)C2CCCC2)cc1,cell number change,,-38.1%
same,AC50,[2],"0.651 µM [falling, full curve, poor fit]"
CSCCC(C(=O)OCC(=O)c1ccc(C)c(C)c1)N1C(=O)c2ccccc2C1=O (stereo unspecified),cell number change,,-23.7%
same,AC50,[1],"0.184 µM [falling, full curve, poor fit]"
same,AC50,[2],"0.103 µM [falling, full curve]"
COCCCNc1c2c(nc3nnnn13)CCCC2,cell number change,,-32.9%
same,AC50,[1],"9.2 µM [falling, partial curve]"
same,AC50,[2],"29.1 µM [falling, single point]"
COc1ccc(N2CC(C(=O)N3CCN(c4ccccc4OC)CC3)CC2=O)cc1 (stereo unspecified),cell number change,,1.28%
CN(C)c1ccc(N=Cc2nc(-c3ccccc3)oc2OC(=O)c2cccc(Br)c2)cc1,cell number change,,-1.57%
same,AC50,[2],"6.51 µM [rising, single point]"
Cc1nn(C2CCS(=O)(=O)C2)c(Cl)c1/C=C/C(=O)OCC(=O)Nc1ccccc1OC(F)F (stereo unspecified),cell number change,,-14.9%
same,AC50,[2],"0.731 µM [rising, single point]"
O=C(O)CN=C(NS(=O)(=O)c1ccccc1)c1ccccc1,cell number change,,9.8%
same,AC50,[2],"3.26 µM [falling, partial curve]"
Cc1cc(=O)[nH]c2ccc(S(=O)(=O)NCc3ccccc3)cc12,cell number change,,22.2%
same,AC50,[2],"0.366 µM [falling, full curve]"
CC(C)OC(=O)c1ccc(N)cc1,cell number change,,12.3%
same,AC50,[2],"0.461 µM [falling, single point]"
Cc1ccccc1NC(=O)CSc1nnc(CNC(=O)c2ccc3c(c2)OCO3)n1C,cell number change,,23.1%
same,AC50,[2],"29.1 µM [rising, single point]"
O=C(O)/C=C/c1coc2ccccc2c1=O,cell number change,,14.5%
same,AC50,[2],"23.1 µM [rising, single point]"
Cc1ccc(C(=O)NCC(=O)OCc2c(F)cccc2Cl)cc1,cell number change,,33.5%
same,AC50,[1],"32.6 µM [rising, single point]"
CCOc1ccc(NC(=O)Nc2ccc3c(c2)nnn3C)cc1,AC50,[1],"0.92 µM [rising, partial curve]"
same,AC50,[2],"1.3 µM [rising, partial curve]"
Cc1cc(N2CCC(C(=O)NC3CCCCC3)CC2)nc(-c2ccccc2)n1,cell number change,,-16.1%
same,AC50,[2],"20.6 µM [falling, partial curve]"
Cn1c(=O)n(Cc2ccccc2)c(=O)c2c1nc1n2CCS1,cell number change,,11.1%
same,AC50,[1],"0.411 µM [falling, single point]"
same,AC50,[2],"0.517 µM [falling, full curve, poor fit]"
CC1CCCN(C(=O)Cc2cn(Cc3cccc(Cl)c3)c3ccccc23)C1 (stereo unspecified),cell number change,,38.3%
same,AC50,[1],"18.4 µM [rising, partial curve, poor fit]"
same,AC50,[2],"5.8 µM [rising, full curve]"
CCOC(=O)c1ccc(Nc2nc(C)nc3c2nnn3Cc2ccccc2)cc1,cell number change,,21.7%
same,AC50,[2],"10.3 µM [falling, partial curve]"
CCN(CC)CCn1c(N)nc2ccccc21,cell number change,,35.7%
CCN(CC(=O)NCc1ccc(Cl)cc1)C(=O)CSCC(=O)Nc1cccc(C)c1,cell number change,,-23%
same,AC50,[2],"29.1 µM [falling, partial curve, poor fit]"
O=C(O)/C=C\C(=O)Nc1ccc(OCc2ccccc2)cc1,cell number change,,-4.09%
same,AC50,[1],"0.00461 µM [rising, full curve, poor fit]"
COc1ccc(N2C(=O)N3[C@H](c4ccc(Cl)cc4)[C@@H]4C(=O)N(C5CCCCC5)C(=O)[C@@H]4[C@]3(Cc3ccc(Cl)cc3)C2=O)cc1,cell number change,,49.2%
same,AC50,[1],"13 µM [rising, partial curve, poor fit]"
same,AC50,[2],"29.1 µM [falling, single point]"
COC(=O)c1ccc(C(=O)OC)c(NC(=O)CN2CCC(C)CC2)c1,cell number change,,78.5%
same,AC50,[1],"29.1 µM [rising, single point]"
Cc1cc(C)cc(-n2ncc3c2CCCC3NC(=O)C2CCC2)c1 (stereo unspecified),cell number change,,-18.1%
same,AC50,[1],"0.517 µM [falling, full curve]"
same,AC50,[2],"0.58 µM [falling, single point]"
COc1ccc(-c2c(C(F)(F)F)oc3c(CN4CCN(C)CC4)c(O)ccc3c2=O)cc1,cell number change,,-58.9%
same,AC50,[1],"25.9 µM [falling, partial curve, poor fit]"
same,AC50,[2],"0.092 µM [falling, partial curve, poor fit]"
CCOc1ccc(NS(=O)(=O)c2ccc3[nH]c(=O)[nH]c3c2)cc1,cell number change,,-30.2%
same,AC50,[1],"0.164 µM [falling, full curve]"
COc1ccc(C(=O)N2CCN(CCc3ccccn3)CC2)cc1,AC50,[2],"6.51 µM [rising, single point]"
Cc1ccccc1OCc1nnc(SCc2nc3ccccc3c(=O)[nH]2)n1C,cell number change,,-30%
COc1ccc(CNC(=O)[C@H](C)NC(=O)C2CCN(C(=O)[C@@H](N)Cc3ccccc3)CC2)cc1,cell number change,,-17.5%
same,AC50,[2],"0.058 µM [falling, full curve, poor fit]"
CC(=O)Nc1cccc(C(=O)OCC(=O)N(c2ccccc2)C2CCS(=O)(=O)C2)c1 (stereo unspecified),AC50,[1],"6.51 µM [falling, single point]"
same,AC50,[2],"4.61 µM [falling, partial curve]"
COC(=O)c1ccc(Cn2c(C)cc(C)[n+]2C)o1,cell number change,,13%
Cc1ccc(-n2c(SCC(=O)Nc3ccc4c5c(cccc35)CC4)nc(O)cc2=O)cc1,cell number change,,15.8%
same,AC50,[2],"1.03 µM [rising, partial curve, poor fit]"
COCCn1c(=O)c2cc3c(=O)n(CCOC)c(=O)c3cc2c1=O,cell number change,,-22.2%
same,AC50,[1],"2.06 µM [falling, partial curve, poor fit]"
same,AC50,[2],"29.1 µM [falling, single point]"
COc1ccc(S(=O)(=O)N2CCN(CC(O)COc3ccc(CC#N)cc3)CC2)cc1OC (stereo unspecified),cell number change,,34.2%
same,AC50,[1],"29.1 µM [rising, single point]"
same,AC50,[2],"11.6 µM [rising, single point]"
COc1ccc(C2=NOC(COc3ccc([N+](=O)[O-])cc3)C2)cc1 (stereo unspecified),cell number change,,24.6%
same,AC50,[2],"0.651 µM [rising, full curve, poor fit]"
Cc1ccc(NC(=O)c2ccc3c(c2)[nH]c(=O)n3C(C)C)cc1,cell number change,,-37.8%
O=C(NC1CCN(C(=O)c2ccccc2Br)CC1)c1ccccc1,cell number change,,-50.1%
same,AC50,[1],"23.1 µM [falling, single point]"
same,AC50,[2],"23.1 µM [falling, partial curve]"
O=C(Cn1cnc2c(nnn2Cc2ccc(F)cc2)c1=O)Nc1cccc(F)c1,cell number change,,23.2%
same,AC50,[2],"4.61 µM [rising, single point]"
Cn1ccc(=Nc2ccc(NC(=O)c3ccc(N=c4ccn(C)c5ccc([N+](=O)[O-])cc45)cc3)cc2)cc1,cell number change,,86.5%
same,AC50,[1],"2.91 µM [rising, full curve]"
same,AC50,[2],"4.11 µM [rising, full curve]"
CC(C)(C)OC(=O)COc1cc(F)ccc1[N+](=O)[O-],cell number change,,17.8%
same,AC50,[2],"0.92 µM [rising, partial curve]"
COCCCn1c(=O)c2sccc2n(Cc2cccc(F)c2)c1=O,AC50,[1],"2.06 µM [rising, partial curve]"
O=C(NNC(=O)c1ccccc1O)c1ccc(Br)cc1,cell number change,,-24.8%
same,AC50,[2],"6.51 µM [falling, single point]"
CNC(=O)/C(=N\O)c1ccccc1,cell number change,,0.864%
same,AC50,[2],"6.51 µM [rising, single point]"
O=C(NCc1cccs1)c1nn2cccnc2c1Cl,AC50,[1],"0.326 µM [rising, single point]"
same,AC50,[2],"0.146 µM [rising, full curve, poor fit]"
O=C(CC1C(=O)N(Cc2ccccc2)C(=S)N1CCN1CCOCC1)Nc1ccc(F)cc1 (stereo unspecified),cell number change,,100%
same,AC50,[2],"0.651 µM [rising, partial curve, poor fit]"
Cc1ccc(C(C#N)c2ccc3c(C(F)(F)F)cc(C(F)(F)F)nc3n2)cc1 (stereo unspecified),cell number change,,14.3%
same,AC50,[2],"0.092 µM [rising, full curve, poor fit]"
Cc1ccc([N+](=O)[O-])cc1S(=O)(=O)Nc1ccccn1,cell number change,,-5.99%
same,AC50,[2],"6.51 µM [falling, single point]"
O=C(O)CC1(CC(=O)NCc2ccc(C(F)(F)F)cc2)CCCCC1,cell number change,,15.1%
same,AC50,[1],"4.11 µM [falling, single point]"
CCN(CC)C(=O)COC(=O)c1cc(-c2ccc(OC)cc2)nc2ccccc12,cell number change,,11.9%
same,AC50,[2],"0.58 µM [rising, full curve]"
COc1ccc(-c2cc(C(F)(F)F)nc(NCc3cccs3)n2)cc1,cell number change,,12.2%
same,AC50,[2],"0.651 µM [rising, full curve, poor fit]"

# Seven entries from above, bar-delimited:
smiles | measurement | setting | value
CC(=O)c1ccc(N=C2SCCCN2C(=O)C2CCCC2)cc1 | cell number change |  | -38.1%
CC(=O)Nc1cccc(C(=O)OCC(=O)N(c2ccccc2)C2CCS(=O)(=O)C2)c1 (stereo unspecified) | AC50 | [1] | 6.51 µM [falling, single point]
Cc1ccc(-n2c(SCC(=O)Nc3ccc4c5c(cccc35)CC4)nc(O)cc2=O)cc1 | cell number change |  | 15.8%
same | AC50 | [2] | 1.03 µM [rising, partial curve, poor fit]
O=C(Cn1cnc2c(nnn2Cc2ccc(F)cc2)c1=O)Nc1cccc(F)c1 | cell number change |  | 23.2%
O=C(NNC(=O)c1ccccc1O)c1ccc(Br)cc1 | AC50 | [2] | 6.51 µM [falling, single point]
Cc1ccc([N+](=O)[O-])cc1S(=O)(=O)Nc1ccccn1 | cell number change |  | -5.99%
